PubChem BioAssay AID743454 – Peter MacCallum Cancer Centre | 2014
Assay: 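Search for knock-downs that restore vorinostat killing in resistant colon cancer cells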 (primary screen). System: human HCT116-VR colon cancer cells, selected for vorinostat resistance. Reagents: siRNA pool against human genes, 40 nM siRNA pool. Duration: vorinostat for 24 h, read-out about 72 h after transfection. Conditions: vorinostat at 2.5 µM final. Read-out: 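Two measures, CellTiter-Fluor viability and luminescent caspase 3/7 activity, each as fold change against same-plate mock wells, mean of duplicates, then screen-wide robust z-score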. Reading the numbers: viability robust z-score: higher = more viable cells than screen typical; caspase robust z-score: higher = more caspase 3/7 activity than screen typical. Rule for the call: 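a knock-down is a hit when classed RV1 or RV2 for lowered viability, or CA1 or CA2 for caspase activation; those lethal without drug were dropped; hits were retested singly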.
In all, the deposit lists about 18,000 reagents; below is a part drawn at random. Of all reagents, 450 (2.5%) got an active call. 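Single biological run; no consistent viability z cut-off exists, so the class columns, not z-scores, define the calls.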 No sequences are given here.

gene symbol | viability hit class | caspase hit class | viability robust z-score | caspase robust z-score | outcome
CEP55 | no change | no change | -1.32 | -0.18 | inactive
HSPA12A | no change | no change | 0.33 | 0.36 | inactive
SFR1 | no change | no change | 0.95 | -0.32 | inactive
RSBN1 | no change | no change | 0.76 | 4.43 | inactive
KLK2 | no change | no change | 0.94 | 0.39 | inactive
LRRC17 | no change | no change | 1.25 | 0.58 | inactive
TMSB10 | no change | no change | 0.36 | 0.12 | inactive
IDO1 | no change | no change | 0.06 | -0.56 | inactive
SCAND1 | no change | no change | -1.38 | 0 | inactive
BZW1 | no change | no change | 0.88 | -0.78 | inactive
GPAA1 | no change | no change | -1.57 | 1.01 | inactive
SLC33A1 | no change | no change | -0.46 | -0.76 | inactive
ACTR3 | no change | no change | -0.4 | -0.52 | inactive
INKA1 | no change | no change | -0.34 | 0.07 | inactive
ADGRE5 | no change | no change | 1.16 | 1.38 | inactive
PVALB | no change | no change | -3.02 | 0.62 | inactive
IFI27L1 | no change | no change | 0.54 | 0.03 | inactive
EIF4E | no change | no change | -1.23 | -0.23 | inactive
ZC3HAV1 | no change | no change | 0.48 | -0.42 | inactive
KMT5C | no change | no change | -1.36 | 0.88 | inactive
SIRT3 | no change | no change | -0.36 | -0.51 | inactive
MED25 | no change | no change | 1.02 | 3.64 | inactive
HOXD1 | no change | no change | -0.7 | -0.29 | inactive
ATP6V1G1 | no change | no change | -0.48 | -0.41 | inactive
ZNF813 | no change | no change | 0.24 | 0.76 | inactive
CPXCR1 | no change | no change | -1.94 | 3.63 | inactive
AQP2 | no change | no change | -0.77 | -1.07 | inactive
DOK3 | no change | no change | 0.5 | -0.4 | inactive
PPARG | no change | no change | -0.57 | -1.11 | inactive
VPS13C | no change | no change | -0.06 | -0.82 | inactive
HUWE1 | no change | no change | -0.22 | 0.11 | inactive
TNRC6B | no change | no change | 0.45 | 0.18 | inactive
MLF2 | no change | no change | 0.02 | 0.46 | inactive
AZU1 | no change | no change | -0.16 | -0.9 | inactive
SOST | no change | no change | -0.24 | 2.1 | inactive
ADGRE2 | no change | no change | -0.84 | 1.94 | inactive
ZBED8L | no change | no change | 0.26 | -0.67 | inactive
OR14I1 | no change | no change | -0.57 | 0.54 | inactive
INSL6 | no change | no change | 0.68 | 0.23 | inactive
UTP18 | no change | no change | -1.86 | -0.04 | inactive
FIGNL2 | no change | no change | 0.44 | 0.53 | inactive
H3-4 | no change | no change | -0.44 | -0.42 | inactive
SLC16A9 | no change | no change | -0.63 | -0.07 | inactive
H3C14 | no change | no change | -1.49 | 1.3 | inactive
TAF2 | no change | no change | -0.23 | -0.82 | inactive
BCKDHB | no change | no change | 0.27 | -0.64 | inactive
SH3BGRL3 | no change | no change | -0.32 | -0.05 | inactive
APBA2 | no change | no change | 1.34 | -0.87 | inactive
PNPLA1 | no change | no change | -0.5 | 0.09 | inactive
CHAMP1 | no change | no change | 0.3 | -0.48 | inactive
TRARG1 | no change | no change | -0.01 | 0.26 | inactive
CARD19 | no change | no change | -0.23 | 1.48 | inactive
DPP9 | no change | no change | 0.3 | 3.17 | inactive
ZNF503 | no change | no change | -0.16 | -0.61 | inactive
LRP4 | no change | no change | 0.9 | -0.81 | inactive
OAS2 | no change | no change | 0.84 | -0.79 | inactive
ARL3 | no change | no change | 0.74 | 0.16 | inactive
